Test results published in PubChem BioAssay (NCI).
This list holds what a sample rich in hits left over. Active and inactive are the calls of the source. No stated cut-off is given here; in the data, active means growth inhibition above about 70%; inactive means the rest.

Columns and labels:
[1] = NCI Yeast Anticancer Drug Screen. Data for the rad52 strain (AID 147);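 further: 0% = growth of vehicle-treated control cultures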; conditions: S. cerevisiae rad52 mutant growth inhibition, active compounds read high
Method in brief: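 Genetically altered yeast (DNA damage repair defect) treated with compound; inhibition calculated relative to vehicle.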

[2] = NCI Yeast Anticancer Drug Screen. Data for the wt1 strain (AID 149);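 further: 0% = growth of vehicle-treated wt1 cultures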; conditions: S. cerevisiae wt1 strain (SPY 50644) growth inhibition, active compounds read high
Method in brief: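 wt1 strain grown with compound or vehicle; inhibition taken from the growth difference.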

[3] = NCI Yeast Anticancer Drug Screen. Data for the rad50EPP+ strain (AID 151);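 further: 0% = growth of vehicle-treated control cultures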; conditions: S. cerevisiae rad50 mutant strain, active compounds read high
Method in brief: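 Strain rad50EPP+; compound exposure; % growth inhibition vs vehicle.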

[4] = NCI Yeast Anticancer Drug Screen. Data for the mgt1 strain (AID 153); conditions: S. cerevisiae mgt1 mutant growth inhibition, active compounds read high
Method in brief: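 Read-out: yeast growth inhibition vs vehicle control. Strain mgt1, drawn from a panel altered in DNA damage repair or cell cycle control.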

[5] = NCI Yeast Anticancer Drug Screen. Data for the rad14 strain (AID 159);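 further: 0% = growth of vehicle-treated control cultures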; conditions: S. cerevisiae rad14 strain growth inhibition, active compounds read high
Method in brief: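 DNA repair-defective yeast, compound-exposed; % growth inhibition derived by comparison with vehicle-treated controls.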

[6] = NCI Yeast Anticancer Drug Screen. Data for the CLN2oe strain (AID 163);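 further: 0% = growth of vehicle-only control cultures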; conditions: S. cerevisiae CLN2oe strain, active compounds read high
Method in brief: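 Strain altered in cell-cycle control, incubated with compound; growth compared to solvent-treated controls.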

[7] = NCI Yeast Anticancer Drug Screen. Data for the wt2 strain (AID 169);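 further: 0% = growth of vehicle-treated yeast cultures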; conditions: S. cerevisiae wt2 strain growth inhibition, active compounds read high
Method in brief: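 Steps: yeast strain treated with compound; growth recorded; inhibition calculated relative to cultures given vehicle alone.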

[8] = NCI Yeast Anticancer Drug Screen. Data for the mlh1 strain (AID 171);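 further: 0% = growth of vehicle-treated control cultures of the same strain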; conditions: S. cerevisiae mlh1 strain growth inhibition, active compounds read high
Method in brief: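 Yeast screen: mutant strain plus compound, growth scored against vehicle control wells.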

[9] = NCI Yeast Anticancer Drug Screen. Data for the sgs1 strain (AID 173);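 further: 0% = growth of vehicle-only control cultures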; conditions: S. cerevisiae sgs1 mutant, active compounds read high
Method in brief: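 Inhibition of yeast growth served as the measure. The mutant strain was treated with each compound, and growth was normalised to cultures receiving vehicle alone.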

[10] = NCI Yeast Anticancer Drug Screen. Data for the rad18 strain (AID 177); conditions: S. cerevisiae rad18 mutant growth inhibition, active compounds read high
Method in brief: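 Inhibition values reflect reduced yeast growth compared with vehicle-treated controls, using a strain engineered with a DNA damage repair defect.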

Measured: growth inhibition

O=[N+]([O-])c1ccc(Nc2ccc(O)cc2)c([N+](=O)[O-])c1
inactive: [1]; at 1.2 µM -4% | [1]; at 3.7 µM -3% | [1]; at 11.0 µM -1% | [1]; at 33.0 µM -54% | [1]; at 100.0 µM 1% | [2]; at 1.2 µM -3% | [2]; at 3.7 µM -3% | [2]; at 11.0 µM -5% | [2]; at 33.0 µM -8% | [2]; at 100.0 µM -9% | [3]; at 1.2 µM -2% | [3]; at 3.7 µM 4% | [3]; at 11.0 µM 15% | [3]; at 33.0 µM 14% | [3]; at 100.0 µM 12% | [4]; at 1.2 µM -3% | [4]; at 3.7 µM -3% | [4]; at 11.0 µM -3% | [4]; at 33.0 µM -6% | [4]; at 100.0 µM -2% | [5]; at 1.2 µM -5% | [5]; at 3.7 µM -5% | [5]; at 11.0 µM -2% | [5]; at 33.0 µM 3% | [5]; at 100.0 µM 1% | [6]; at 1.2 µM -6% | [6]; at 3.7 µM -11% | [6]; at 11.0 µM -21% | [6]; at 33.0 µM -18% | [6]; at 100.0 µM -15% | [7]; at 1.2 µM -2% | [7]; at 3.7 µM -5% | [7]; at 11.0 µM -6% | [7]; at 33.0 µM -6% | [7]; at 100.0 µM -6% | [8]; at 1.2 µM -2% | [8]; at 3.7 µM 0% | [8]; at 11.0 µM 2% | [8]; at 33.0 µM 6% | [8]; at 100.0 µM 8% | [9]; at 1.2 µM 0% | [9]; at 3.7 µM 1% | [9]; at 11.0 µM 5% | [9]; at 33.0 µM 9% | [9]; at 100.0 µM 2% | [10]; at 1.2 µM -1% | [10]; at 3.7 µM 2% | [10]; at 11.0 µM 2% | [10]; at 33.0 µM 7% | [10]; at 100.0 µM 12%

CC(Oc1ccc(Oc2cnc3ccc(Cl)cc3n2)cc1)C(=O)O (stereo not given)
inactive: [1]; at 1.2 µM 7% | [1]; at 3.7 µM 7% | [1]; at 11.0 µM 9% | [1]; at 33.0 µM 8% | [1]; at 100.0 µM 35% | [2]; at 1.2 µM 3% | [2]; at 3.7 µM 3% | [2]; at 11.0 µM 1% | [2]; at 33.0 µM 3% | [2]; at 100.0 µM 24% | [3]; at 1.2 µM 2% | [3]; at 3.7 µM 1% | [3]; at 11.0 µM 0% | [3]; at 33.0 µM 1% | [3]; at 100.0 µM 2% | [4]; at 1.2 µM 3% | [4]; at 3.7 µM 2% | [4]; at 11.0 µM 4% | [4]; at 33.0 µM 2% | [4]; at 100.0 µM 43% | [5]; at 1.2 µM 4% | [5]; at 3.7 µM 2% | [5]; at 11.0 µM 5% | [5]; at 33.0 µM 9% | [5]; at 100.0 µM 27% | [6]; at 1.2 µM 3% | [6]; at 3.7 µM 3% | [6]; at 11.0 µM 6% | [6]; at 33.0 µM 10% | [6]; at 100.0 µM 31% | [7]; at 1.2 µM 2% | [7]; at 3.7 µM 2% | [7]; at 11.0 µM 3% | [7]; at 33.0 µM 11% | [7]; at 100.0 µM 39% | [8]; at 1.2 µM 3% | [8]; at 3.7 µM 2% | [8]; at 11.0 µM 3% | [8]; at 33.0 µM 13% | [8]; at 100.0 µM 37% | [9]; at 1.2 µM 4% | [9]; at 3.7 µM 2% | [9]; at 11.0 µM 1% | [9]; at 33.0 µM 24% | [9]; at 100.0 µM 55% | [10]; at 1.2 µM 5% | [10]; at 3.7 µM 6% | [10]; at 11.0 µM 9% | [10]; at 33.0 µM 19% | [10]; at 100.0 µM 45%

CC(C)=CCCC(C)CCOC(=O)Nc1ccccc1 (stereo not given)
inactive: [2]; at 1.2 µM -4% | [2]; at 3.7 µM -4% | [2]; at 11.0 µM -7% | [2]; at 33.0 µM -12% | [2]; at 100.0 µM -13% | [3]; at 1.2 µM -7% | [3]; at 3.7 µM 8% | [3]; at 11.0 µM 13% | [3]; at 33.0 µM 30% | [3]; at 100.0 µM 51% | [4]; at 1.2 µM -3% | [4]; at 3.7 µM -1% | [4]; at 11.0 µM -5% | [4]; at 33.0 µM -8% | [4]; at 100.0 µM -5% | [5]; at 1.2 µM -3% | [5]; at 3.7 µM -5% | [5]; at 11.0 µM -4% | [5]; at 33.0 µM 0% | [5]; at 100.0 µM 2% | [6]; at 1.2 µM -2% | [6]; at 3.7 µM -4% | [6]; at 11.0 µM -7% | [6]; at 33.0 µM -13% | [6]; at 100.0 µM -16% | [7]; at 1.2 µM -3% | [7]; at 3.7 µM -5% | [7]; at 11.0 µM -6% | [7]; at 33.0 µM -9% | [7]; at 100.0 µM -11% | [8]; at 1.2 µM -2% | [8]; at 3.7 µM -1% | [8]; at 11.0 µM 2% | [8]; at 33.0 µM 3% | [8]; at 100.0 µM 6% | [9]; at 1.2 µM -3% | [9]; at 3.7 µM 0% | [9]; at 11.0 µM 1% | [9]; at 33.0 µM 3% | [9]; at 100.0 µM 8%

O=C1C=CC(=Nc2ccc3c(c2)C(O)c2ccccc2-3)O1 (stereo not given)
inactive: [1]; at 1.2 µM -4% | [1]; at 3.7 µM -5% | [1]; at 11.0 µM -2% | [1]; at 33.0 µM 3% | [1]; at 100.0 µM 8% | [2]; at 1.2 µM -4% | [2]; at 3.7 µM -3% | [2]; at 11.0 µM -3% | [2]; at 33.0 µM 0% | [2]; at 100.0 µM 0% | [3]; at 1.2 µM 1% | [3]; at 3.7 µM 0% | [3]; at 11.0 µM 1% | [3]; at 33.0 µM 10% | [3]; at 100.0 µM 34% | [4]; at 1.2 µM -3% | [4]; at 3.7 µM -5% | [4]; at 11.0 µM -2% | [4]; at 33.0 µM 1% | [4]; at 100.0 µM 10% | [5]; at 1.2 µM -3% | [5]; at 3.7 µM -5% | [5]; at 11.0 µM -2% | [5]; at 33.0 µM 4% | [5]; at 100.0 µM 10% | [6]; at 1.2 µM -8% | [6]; at 3.7 µM -4% | [6]; at 11.0 µM -10% | [6]; at 33.0 µM -10% | [6]; at 100.0 µM -7% | [7]; at 1.2 µM -5% | [7]; at 3.7 µM -5% | [7]; at 11.0 µM -3% | [7]; at 33.0 µM -2% | [7]; at 100.0 µM 1% | [8]; at 1.2 µM -1% | [8]; at 3.7 µM -1% | [8]; at 11.0 µM 4% | [8]; at 33.0 µM 9% | [8]; at 100.0 µM 14% | [9]; at 1.2 µM -1% | [9]; at 3.7 µM 1% | [9]; at 11.0 µM 3% | [9]; at 33.0 µM 8% | [9]; at 100.0 µM 13% | [10]; at 1.2 µM -4% | [10]; at 3.7 µM -2% | [10]; at 11.0 µM -1% | [10]; at 33.0 µM 5% | [10]; at 100.0 µM 13%
